Experimental data taken from patent US5430062A, “Stilbene derivatives as anticancer agents” (priority 1993, dated 1995).
At least one structure is not confirmed: it was looked up by name or label, or the drawing left a doubt.

Test system: tubulin
Assay: Inhibition of tubulin polymerization (turbidimetry)
Format: biochemical, bovine
Details: second series (Tables V-VII, IX); read-out: Inhibition of Tubulin Polymerization IC50 (±S.D.)

## COc1cc(/C=C\c2ccc(C(C)C)cc2)cc(OC)c1OC [compound 15f, (Z)-[4-(2-Propyl)phenyl]-2-(3,4,5-trimethoxyphenyl)ethene]
  IC50: 12 µM
